Measurements reported in PubChem BioAssay AID1259308 (NCATS, 2017)
In all, the deposit lists about 59,000 reagents; this is a random part of them. In the full data, about 1,510 (2.6%) were called active. 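Calls use total luciferase alone and ignore viability, so some active siRNAs may act by altering cell number.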 Unmarked entries are inactive. Reagents against one gene are numbered here. Not all columns of the deposit are shown. Reagent sequences are not shown.

Aim: 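Knock-downs that increase output of a recombinant reporter protein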 (primary screen)
System: human HEK293 embryonic kidney cells stably expressing firefly luciferase (HEK-CMV-Luc2-Hygro)
Knock-down reagent: single siRNA against human genes, 0.8 pmol siRNA per well
Timing: 72 h
Read-out: 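Luciferase light (ONE-Glo) measured on one replicate plate set and viability (CellTiter-Glo) on the other, scaled to a negative control siRNA, with robust z-scores and luciferase per cell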
Scale: total luciferase, z-score and total luciferase, % of control: higher = more reporter protein produced
Hit rule: 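Active when the median/MAD z-score for overall luciferase is greater than 3; a gene was taken forward for validation with new siRNAs if at least two of its three siRNAs passed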
Meaning of the calls: active = raised luciferase; inactive = no rise

Against ZNF547 #1, the entry reads total luciferase, z-score 2.02; total luciferase, % of control 122.
Against ZNF547 #2, the entry reads total luciferase, z-score 0.689; total luciferase, % of control 95.6.
ZNF547 #3 showed total luciferase, z-score 1.01; total luciferase, % of control 102.
Silencing of TMPRSS15 #1 resulted in: total luciferase, z-score 0.742; total luciferase, % of control 96.6.
After knock-down of TMPRSS15 #2 the results were total luciferase, z-score 0.549; total luciferase, % of control 92.8.
For TMPRSS15 #3, the entry reads total luciferase, z-score -0.39; total luciferase, % of control 74.1.
After knock-down of SFT2D3 #1, the screen gave total luciferase, z-score 2.85; total luciferase, % of control 139.
Knock-down of SFT2D3 #2 gave: total luciferase, z-score 0.564; total luciferase, % of control 93.1.
For SFT2D3 #3, the values are total luciferase, z-score -0.351; total luciferase, % of control 74.9.
KCNE3 #1 gave total luciferase, z-score 1.18; total luciferase, % of control 105.
For KCNE3 #2, the values are total luciferase, z-score 1.22; total luciferase, % of control 106.
Against KCNE3 #3 the deposit lists total luciferase, z-score 1.54; total luciferase, % of control 113.
BMAL1 #1 scored total luciferase, z-score 0.204; total luciferase, % of control 85.9.
For BMAL1 #2, the entry reads total luciferase, z-score 0.649; total luciferase, % of control 94.8.
After knock-down of BMAL1 #3, the record shows total luciferase, z-score 1.91; total luciferase, % of control 120.
Knock-down of CDC20B #1 came out at: total luciferase, z-score 6.39 (active); total luciferase, % of control 209.
Against CDC20B #2, the values are total luciferase, z-score -0.798; total luciferase, % of control 66.
Knock-down of CDC20B #3 resulted in: total luciferase, z-score -1.72; total luciferase, % of control 47.7.
Against CNN2 #1, the values are total luciferase, z-score 0.55; total luciferase, % of control 92.8.
For CNN2 #2, the values are total luciferase, z-score -1.28; total luciferase, % of control 56.4.
Depletion of CNN2 #3 came out at: total luciferase, z-score -0.167; total luciferase, % of control 78.6.
Depletion of FRMPD2 #1 gave: total luciferase, z-score -0.127; total luciferase, % of control 79.4.
Against FRMPD2 #2, the values are total luciferase, z-score -1.42; total luciferase, % of control 53.6.
FRMPD2 #3 scored total luciferase, z-score 1.77; total luciferase, % of control 117.
With knock-down of ASCC3 #1, the screen gave total luciferase, z-score -0.303; total luciferase, % of control 75.9.
ASCC3 #2 showed total luciferase, z-score -0.691; total luciferase, % of control 68.1.
ASCC3 #3 scored total luciferase, z-score 0.782; total luciferase, % of control 97.4.
For IL17REL #1, the entry reads total luciferase, z-score 1.41; total luciferase, % of control 110.
After knock-down of IL17REL #2 the results were total luciferase, z-score -1.41; total luciferase, % of control 53.8.
After knock-down of IL17REL #3 the results were total luciferase, z-score 7.29 (active); total luciferase, % of control 227.
PRKCE #1 gave total luciferase, z-score -1.34; total luciferase, % of control 55.2.
After knock-down of PRKCE #2 the results were total luciferase, z-score 0.461; total luciferase, % of control 91.1.
Knock-down of PRKCE #3 gave: total luciferase, z-score 1.69; total luciferase, % of control 116.
LINC03040 #1 gave total luciferase, z-score -1.7; total luciferase, % of control 48.1.
Depletion of LINC03040 #2 gave: total luciferase, z-score 0.403; total luciferase, % of control 89.9.
Silencing of LINC03040 #3 came out at: total luciferase, z-score -1.33; total luciferase, % of control 55.5.
Depletion of ZNF408 #1 came out at: total luciferase, z-score -0.342; total luciferase, % of control 75.1.
ZNF408 #2 scored total luciferase, z-score 0.329; total luciferase, % of control 88.4.
ZNF408 #3 scored total luciferase, z-score 0.415; total luciferase, % of control 90.1.
DCUN1D4 #1 showed total luciferase, z-score 1.34; total luciferase, % of control 109.
With knock-down of DCUN1D4 #2 the results were total luciferase, z-score 0.477; total luciferase, % of control 91.4.
After knock-down of DCUN1D4 #3, the record shows total luciferase, z-score 3.62 (active); total luciferase, % of control 154.
